Record: PubChem BioAssay AID1671195 (Yale University, 2021)

Assay: 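Genes whose knockdown alters LDL uptake in liver cancer cells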 (primary screen)
Cell system: human Huh7 hepatoma cells
Reagents: siRNA pool against human genes, 18 nM
Duration: about 2 to 2.5 days of knockdown, then 8 h LDL uptake
Treatment: DiI-labelled LDL at 30 µg/ml for 8 h, in lipoprotein-deficient serum medium
Measured: 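Fluorescent LDL signal imaged in cells, scaled to the plate median, robust z-score for each replicate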
Scale: robust z-score: higher = more LDL uptake after knockdown
Call rule: 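a gene counts as active if at least two replicate z-scores exceed ±2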
Here is an unselected part of about 22,000 reagents tested. Over the whole deposit, about 1,510 (6.9%) were called active. 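Active includes knockdowns raising or lowering LDL uptake; positive z-scores mean more uptake, negative mean less.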 Entries without a mark were called inactive. The numbers tell different reagents against one gene apart.

target gene	reagent no.	robust z-score, replicate 1	robust z-score, replicate 2	robust z-score, replicate 3
FAM89A (family with sequence similarity 89 member A)	1	-0.198	0.00313	0.069
TRIM31 (tripartite motif containing 31)	1	1.87	1.93	1.71
GUCY1B2 (guanylate cyclase 1 soluble subunit beta 2 (pseudogene))	1	1.33 (active)	4.03	2.85
ERGIC2 (ERGIC and golgi 2)	1	-0.489	1.5	1.3
TSPYL4 (TSPY like 4)	1	0.0502	-0.803	1.26
CALML4 (calmodulin like 4)	1	0.65	0.581	0.309
OR7G3 (olfactory receptor family 7 subfamily G member 3)	1	-1.02	-0.784	-0.418
VPS26C (VPS26 endosomal protein sorting factor C)	1	0.0995	1.74	1.03
PRICKLE4 (prickle planar cell polarity protein 4)	1	0.725	3.86	1.4
ITFG2 (integrin alpha FG-GAP repeat containing 2)	1	0.445	0.327	0.0108
TMPRSS12 (transmembrane serine protease 12)	1	0.352	0.218	1.07
TAS2R31 (taste 2 receptor member 31)	1	0.871	1.05	1.09
LOC253584 (retired record)	1	-0.072	0.184	0.191
FBP1 (fructose-bisphosphatase 1)	1	1.63	1.04	1.9
CPZ (carboxypeptidase Z)	1	-0.383	-1.18	-2.87
BRMS1L (BRMS1 like transcriptional repressor)	1	-0.964	-0.914	-1.01
PPTC7 (protein phosphatase targeting COQ7)	1	1.96	1.83	1.88
TBCEL (tubulin folding cofactor E like)	1	-0.064	-0.18	0.111
STAM2 (signal transducing adaptor molecule 2)	1	1.69	0.913	1.69
HLA-DRB3 (major histocompatibility complex, class II, DR beta 3)	1	2.17	-0.583	0.964
DAXX (death domain associated protein)	1	0.777	1.03	1.06
RMND1 (required for meiotic nuclear division 1 homolog)	1	0.242	-0.723	-1.28
CYTH4 (cytohesin 4)	1	-1.12	1.82	0.102
CPNE5 (copine 5)	1	-0.534	0.165	-0.889
TSPAN6 (tetraspanin 6)	1	1.59	-0.606	-0.303
ZEB2 (zinc finger E-box binding homeobox 2)	1	0.925	2.78	1.18
LIPJ (lipase family member J)	1	-2.86	-0.0929	-0.0482
ZNF7 (zinc finger protein 7)	1	-3.77 (active)	-3.11	-2.15

Records listed so far whose gene name begins with L or l:
target gene	reagent no.	robust z-score, replicate 1	robust z-score, replicate 2	robust z-score, replicate 3
LOC253584 (retired record)	1	-0.072	0.184	0.191
LIPJ (lipase family member J)	1	-2.86	-0.0929	-0.0482

Further results follow.
target gene	reagent no.	robust z-score, replicate 1	robust z-score, replicate 2	robust z-score, replicate 3
LOC402037 (retired record)	1	-0.982	-0.683	-1
DDI1 (DDI proteasomal shuttling factor 1)	1	0.317	0.0674	-0.106
CCDC188 (coiled-coil domain containing 188)	1	-0.0784	-0.455	0.332
PRSS12 (serine protease 12)	1	-1.46	-2.05	-0.961
AHCYL1 (adenosylhomocysteinase like 1)	1	-0.466	-0.963	-0.891
ABHD15 (abhydrolase domain containing 15)	1	1.38 (active)	2.24	2.4
RAB43 (RAB43, member RAS oncogene family)	1	-0.832	-0.927	-0.791
NXPE4 (neurexophilin and PC-esterase domain family member 4)	1	0.992	0.0469	1.37
ZNF341 (zinc finger protein 341)	1	1.09	1.03	0.724
PNLIPRP2 (pancreatic lipase related protein 2 (gene/pseudogene))	1	2.02	1.44	1.9
FSIP2 (fibrous sheath interacting protein 2)	1	-0.656	-0.528	-0.545
FSIP2 (fibrous sheath interacting protein 2)	2	-0.861	-1.26	-1.2
STX4 (syntaxin 4)	1	1.28	1.61	1.14
OR52I1 (olfactory receptor family 52 subfamily I member 1)	1	0.108	-0.267	-0.212
SYTL5 (synaptotagmin like 5)	1	2.5 (active)	2.84	3.17
CCDC197 (coiled-coil domain containing 197)	1	1.44	1.65	1.48
RER1 (retention in endoplasmic reticulum sorting receptor 1)	1	0.163	0.116	0.188
SLC25A45	1	0.403	0.295	0.611
TAS2R3 (taste 2 receptor member 3)	1	-1	-1.47	-0.675
SYNJ1 (synaptojanin 1)	1	2.1 (active)	1.92	2.44
LOC283584 (retired record)	1	0.787	0.862	0.896
LOC389300 (retired record)	1	0.604	0.241	0.369
LINC00301 (long independently transcribed non-coding RNA 301)	1	0.392	0.382	0.481
PPP3CB (protein phosphatase 3 catalytic subunit beta)	1	1.01	0.45	1.61
WDR82 (WD repeat domain 82)	1	-1.72	-1.83	-2.13
SLAMF9 (SLAM family member 9)	1	-1.8	-1.37	-1.51
KIAA0825	1	-0.149	-0.808	-0.145
PYY (peptide YY)	1	-0.417	-0.129	0.211
ZCWPW1 (zinc finger CW-type and PWWP domain containing 1)	1	-1.62	-1.21	-0.49
ZNF181 (zinc finger protein 181)	1	-1.31	-1.45	-1.26
STRN3 (striatin 3)	1	-1.82	1.87	-0.903
SMAD2 (SMAD family member 2)	1	1.41	0.966	1.95
RPP38 (ribonuclease P/MRP subunit p38)	1	0.587	0.529	0.862
NATD1 (N-acetyltransferase domain containing 1)	1	0.297	0.0411	0.179
DMXL1 (Dmx like 1)	1	-0.417	-1.79	-0.592
PRKCQ-AS1 (PRKCQ antisense RNA 1)	1	-0.385	-0.429	-0.881
EHD2 (EH domain containing 2)	1	1.07	3.62	0.375
FRAT1 (FRAT regulator of Wnt signaling pathway 1)	1	0.0755	-1.59	-0.715
BCL2L13 (BCL2 like 13)	1	-1.45	-1.39	-1.45
ULBP1 (UL16 binding protein 1)	1	0.217	-0.177	-0.247
